Laboratory results published in the supplement of paper PMC7858590.
Whole data set: some 3,800 compounds, median “cell shape (eccentricity) Z-score vs DMSO control” near 1.1, cut for the lowest 2% near -4.7. The list shows a part of the results.

Test system: human monocyte-derived macrophages (M0)
Assay: cell shape (eccentricity) Z-score vs DMSO control; higher = more elongated, M2-like morphology
Conditions: 20 µM; 24 h; macrophage state: M0 (M-CSF)

Compound | cell shape (Z-score)
COC(=O)C(c1ccccc1)C1CCCCN1 (stereo not given) | -1.01
CCCN(CCC)C1CCc2c(OC)cccc2C1C (stereo not given) | 4.87
C[CH2][Hg][S]c1ccccc1C(=O)O | 1.12
CCC(C)C(=O)O[C@H]1[C@H](O)C2C(CN3CC(C)CCC3[C@@]2(C)O)C2C[C@]34O[C@]5(O)C(OC(=O)C(C)(O)CC)CC[C@@]3(C)C5C(OC(C)=O)[C@@H](OC(C)=O)C4[C@@]21O (stereo not given in full) | -1.3
CC[C@@H](C(=O)[C@@H](C)[C@@H](O)[C@H](C)[C@@H]1O[C@@H]([C@@H](CC)C(=O)O)CC[C@@H]1C)[C@H]1OC2(C=C[C@@H](O)[C@]3(CC[C@@](C)(C4CC[C@](O)(CC)[C@H](C)O4)O3)O2)[C@H](C)C[C@@H]1C (stereo not given in full) | 1.16
CCN(CC)CCOC1CCC2(C)C(=CCC3C4CCC(=O)C4(C)CCC32)C1 (stereo not given) | -2.74
CNc1ccc2oc(C[C@H]3O[C@@]4(CC[C@H]3C)O[C@H]([C@H](C)C(=O)c3ccc[nH]3)[C@H](C)C[C@H]4C)nc2c1C(=O)O | 7.41
CNc1ccccc1C(=O)O | 1.47
CCN1C[C@]2(C)CC[C@H](OC)[C@@]34C2[C@H](O)C([C@@H]13)[C@@]1(OC)C[C@H](OC)[C@H]2C[C@@H]4[C@@H]1[C@H]2O | 1.73
COC1=CC23CCN(C)[C@H](Cc4cc(OC)c(OC)cc42)C3=CC1=O | 0.695
NCC(CS(=O)(=O)O)c1ccc(Cl)cc1 (stereo not given) | 1.7
COC1CC(O[C@H]2CC[C@@]3(C)C(CCC4C3CC[C@]3(C)C(C5=CC(=O)OC5)CCC43O)C2)OC(C)C1OC1OC(COC2OC(CO)C(O)C(O)C2O)C(O)C(O)C1O (stereo not given in full) | -1.09
C[C@@H]1O[C@@H](O[C@@H]2C=C3CC[C@@H]4C(CC[C@]5(C)[C@@H](c6ccc(=O)oc6)CC[C@]45O)[C@@]3(C)CC2)[C@H](O)[C@H](O)[C@H]1O (stereo not given in full) | -0.672
CC(=O)O[C@H]1CC[C@]2(C=O)[C@H]3CC[C@]4(C)[C@@H](C5=CC(=O)OC5)CC[C@]4(O)[C@@H]3CC[C@]2(O)C1 | 2.05
O=C1/C(=C/c2ccccc2)C[C@@]2(O)C3Cc4ccc(O)c5c4[C@@]2(CCN3CC2CC2)[C@H]1O5 | 9.69
CN(C)Cc1c[nH]c2ccccc12 | 2.37
COC(=O)N1CCN(C(=O)Cc2ccc(Cl)c(Cl)c2)C(CN2CCCC2)C1 (stereo not given) | 0.925
Cc1c(C(=O)Nc2cccc(C(F)(F)F)c2)cc(-c2ccccc2)n1CCCN1CCOCC1 | -0.83
CC(=Cc1csc(C)n1)[C@H]1C[C@@H]2O[C@]2(C)CCC[C@H](C)[C@H](O)[C@@H](C)C(=O)C(C)(C)[C@@H](O)CC(=O)O1 | 0.111
COc1ccc(OC)c(C(O)C(C)NC(C)(C)C)c1 (stereo not given) | 0.783

Part of the list above, set out differently:
Cc1c(C(=O)Nc2cccc(C(F)(F)F)c2)cc(-c2ccccc2)n1CCCN1CCOCC1
  cell shape (Z-score): -0.83
CC(=Cc1csc(C)n1)[C@H]1C[C@@H]2O[C@]2(C)CCC[C@H](C)[C@H](O)[C@@H](C)C(=O)C(C)(C)[C@@H](O)CC(=O)O1
  cell shape (Z-score): 0.111
